For this experiment, the target named is receptor-interacting serine/threonine-protein kinase 1 (RIPK1), endogenous in AC16 cells (human (endogenous in AC16)) (UniProt Q13546). As to the kind of experiment: affinity purification with mass spectrometry; Co-IP of endogenous RIPK1 coupled with LC-MS/MS, under EtOH stimulation; NP-40 lysis buffer, Protein A/G magnetic beads, overnight at 4 °C.

By UniProt entry, the sequences of proteins in these tests, tags left out.
UniProt Q13546: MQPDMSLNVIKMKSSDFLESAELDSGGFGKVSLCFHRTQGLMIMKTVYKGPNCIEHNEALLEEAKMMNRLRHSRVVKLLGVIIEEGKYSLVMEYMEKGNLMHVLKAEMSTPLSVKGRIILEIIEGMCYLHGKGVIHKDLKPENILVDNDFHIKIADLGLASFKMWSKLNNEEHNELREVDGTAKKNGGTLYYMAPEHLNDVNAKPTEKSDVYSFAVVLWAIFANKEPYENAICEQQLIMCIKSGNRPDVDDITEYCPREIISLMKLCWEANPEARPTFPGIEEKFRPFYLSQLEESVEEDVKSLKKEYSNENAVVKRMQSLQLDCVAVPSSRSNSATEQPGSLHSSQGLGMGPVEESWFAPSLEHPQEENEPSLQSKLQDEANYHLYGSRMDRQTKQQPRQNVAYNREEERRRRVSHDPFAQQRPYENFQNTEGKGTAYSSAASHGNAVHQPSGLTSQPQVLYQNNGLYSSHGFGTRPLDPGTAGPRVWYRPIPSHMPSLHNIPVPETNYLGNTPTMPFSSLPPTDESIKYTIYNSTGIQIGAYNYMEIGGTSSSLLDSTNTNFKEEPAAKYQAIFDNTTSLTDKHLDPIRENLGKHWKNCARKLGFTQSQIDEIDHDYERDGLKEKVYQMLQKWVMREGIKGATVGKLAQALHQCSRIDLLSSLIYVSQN

No constants are given. Whether binding was seen depends on the method and setting. Binding seen in cells or lysates may run through a third protein. Here binding means that the protein was enriched with, or labelled near, the bait; the list need not be complete.

B1: ubiquitin-specific protease 53 (USP53), endogenous in AC16 cells (protein, UniProt Q70EK8 1-1073)
chain: MAWVKFLRKPGGNLGKVYQPGSMLSLAPTKGLLNEPGQNSCFLNSAVQVLWQLDIFRRSLRVLTGHVCQGDACIFCALKTIFAQFQHSREKALPSDNIRHALAESFKDEQRFQLGLMDDAAECFENMLERIHFHIVPSRDADMCTSKSCITHQKFAMTLYEQCVCRSCGASSDPLPFTEFVRYISTTALCNEVERMLERHERFKPEMFAELLQAANTTDDYRKCPSNCGQKIKIRRVLMNCPEIVTIGLVWDSEHSDLTEAVVRNLATHLYLPGLFYRVTDENAKNSELNLVGMICYTSQHYCAFAFHTKSSKWVFFDDANVKEIGTRWKDVVSKCIRCHFQPLLLFYANPDGTAVSTEDALRQVISWSHYKSVAENMGCEKPVIHKSDNLKENGFGDQAKQRENQKFPTDNISSSNRSHSHTGVGKGPAKLSHIDQREKIKDISRECALKAIEQKNLLSSQRKDLEKGQRKDLGRHRDLVDEDLSHFQSGSPPAPNGFKQHGNPHLYHSQGKGSYKHDRVVPQSRASAQIISSSKSQILAPGEKITGKVKSDNGTGYDTDSSQDSRDRGNSCDSSSKSRNRGWKPMRETLNVDSIFSESEKRQHSPRHKPNISNKPKSSKDPSFSNWPKENPKQKGLMTIYEDEMKQEIGSRSSLESNGKGAEKNKGLVEGKVHGDNWQMQRTESGYESSDHISNGSTNLDSPVIDGNGTVMDISGVKETVCFSDQITTSNLNKERGDCTSLQSQHHLEGFRKELRNLEAGYKSHEFHPESHLQIKNHLIKRSHVHEDNGKLFPSSSLQIPKDHNAREHIHQSDEQKLEKPNECKFSEWLNIENSERTGLPFHVDNSASGKRVNSNEPSSLWSSHLRTVGLKPETAPLIQQQNIMDQCYFENSLSTECIIRSASRSDGCQMPKLFCQNLPPPLPPKKYAITSVPQSEKSESTPDVKLTEVFKATSHLPKHSLSTASEPSLEVSTHMNDERHKETFQVRECFGNTPNCPSSSSTNDFQANSGAIDAFCQPELDSISTCPNETVSLTTYFSVDSCMTDTYRLKYHQRPKLSFPESSGFCNNSLS
Regarding B1, the binding entry is given as “binds”.

For the origin of these results see article PMC12352791.
